PubChem BioAssay AID686943 – Drosophila RNAi Screening Center – 2013

Test: 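Search across the genome for regulators of signalling from receptor tyrosine kinase to ERK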 (primary screen)
System: Drosophila S2R+ haemocyte-like cells expressing YFP-tagged ERK (Rolled)
Reagent: long dsRNA against Drosophila genes
Conditions: insulin stimulation versus unstimulated cells; dose and duration not given
Detection: 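Per-plate z-scores of phospho-ERK immunostaining normalised to YFP-tagged ERK, measured with and without insulin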
Direction: replicate 1, z-score of dpERK with insulin and replicate 2, z-score of dpERK with insulin: higher = more active ERK per ERK-YFP after insulin; replicate 1, z-score of dpERK under basal conditions: higher = more basal active ERK per ERK-YFP; replicate 1, z-score of ERK-YFP with insulin: higher = more YFP-tagged ERK signal
The screen tested about 23,000 reagents; this is a random part of those with a known target gene and a result. 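Extra replicates exist only for a retested subset of genes; insulin dose and duration not given; both raised and lowered dpERK matter.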 No sequences are given here. The record does not give: the amount of reagent, the time to read-out.

| predicted target | DRSC id | replicate 1, z-score of dpERK with insulin | replicate 2, z-score of dpERK with insulin | replicate 1, z-score of dpERK under basal conditions | replicate 1, z-score of ERK-YFP with insulin |
| --- | --- | --- | --- | --- | --- |
| spdi (split discs) | DRSC18487 | 0.34 | 0.16 | -0.2 | 0.25 |
| spdi (split discs) | DRSC18488 | -0.02 | -0.9 | 0.43 | -0.02 |
| mus301 (mutagen-sensitive 301) | DRSC10939 | -0.68 | 0.61 | 1.03 | 0.6 |
| BOD1 (Biorientation Defective 1) | DRSC15824 | 0.41 | -0.75 | 0.38 | -1.05 |
| kis (kismet) | DRSC00521 | 0.13 | 0.37 | -0.2 | 0.13 |
| kis (kismet) | DRSC00625 | -2.47 | -1.48 | 1.76 | 1.53 |
| kis (kismet) | DRSC00823 | -0.21 | -0.95 | -1.16 | -1.35 |
| CG30416 | DRSC04565 | 0.18 | 0.67 | 1.17 | -0.57 |
| CG10068 | DRSC12508 | 0.61 | -0.17 | -0.06 | -0.38 |
| CG7341 | DRSC10818 | -0.22 | -0.05 | 0.04 | 0.64 |
| Ir48c (Ionotropic receptor 48c) | DRSC06154 | 1.33 | 1.87 | 0.6 | 0 |
| obst-J (obstructor-J) | DRSC10821 | 1.03 | 0.09 | -0.5 | -0.64 |
| CG9164 | DRSC19087 | -0.19 | 0.34 | -0.01 | 0.53 |
| CG9164 | DRSC20162 | -0.22 | 0.57 | -0.71 | 0.22 |
| anchor | DRSC10861 | 0.14 | 0.56 | 0.18 | -0.94 |
| Epg5 (ectopic P-granules autophagy protein 5) | DRSC14778 | -0.32 | -0.04 | -2.95 | 0.53 |
| CG32652 (retired record) | DRSC18942 | 1.73 | -0.02 | -0.11 | 0.66 |
| CG32652 (retired record) | DRSC22662 | -2.73 | 0.27 | -0.47 | 0.3 |
| Obp73a (Odorant-binding protein 73a) | DRSC09907 | 0.95 | 0.78 | 0.27 | 0.37 |
| pHCl-1 (pH-sensitive chloride channel 1) | DRSC09401 | -0.15 | -0.47 | -1.14 | -0.33 |
| pHCl-1 (pH-sensitive chloride channel 1) | DRSC09888 | 0.44 | 0.15 | 1.07 | 0.04 |
| pHCl-1 (pH-sensitive chloride channel 1) | DRSC09991 | 0.45 | -0.26 | 0.78 | 0.04 |
| pHCl-1 (pH-sensitive chloride channel 1) | DRSC10589 | -0.48 | 0.92 | 0.27 | 0.84 |
| CG4229 | DRSC10407 | 0.02 | 0.95 | -0.03 | 0.71 |
| CG10738 | DRSC09792 | -0.19 | 0.04 | 0.06 | 0.19 |
| CG11414 | DRSC04110 | 0.69 | 0.78 | 0.39 | 0.05 |
| CG11664 | DRSC18650 | 0.56 | 0.05 | 0.62 | 0.02 |
| CG4887 | DRSC00670 | 1.23 | 1.01 | -0.36 | -0.2 |
| CG4887 | DRSC21563 | 1.01 | 0.11 | 0.26 | 0.14 |
| fs(1)h (female sterile (1) homeotic) | DRSC18778 | 0.87 | 0.41 | -0.24 | 0.35 |
| CG31788 | DRSC01630 | -0.08 | 0.44 | 2.19 | -0.51 |
| CG15239 | DRSC17972 | 2.81 | 3.49 | 1.37 | -4.96 |
| CG13901 | DRSC08371 | -0.09 | 0.43 | -0.14 | -0.34 |
| unc-13-4A | DRSC10201 | -0.23 | 0.83 | -0.18 | 0.38 |
| unc-13-4A | DRSC10202 | -0.02 | 0.34 | 0.07 | 0.53 |
| unc-13-4A | DRSC10203 | -2.71 | -3.93 | -0.54 | -3.38 |
| unc-13-4A | DRSC11013 | 0.23 | 0.38 | -0.15 | -0.07 |
| CG15676 | DRSC04267 | -0.48 | -0.02 | 0.49 | 0.29 |
| CG18301 | DRSC02662 | 0.12 | 0.07 | -0.12 | -0.02 |
| RpL17 (Ribosomal protein L17) | DRSC18293 | -2.59 | -0.56 | -1.25 | -2.84 |
| Etl1 | DRSC02911 | 0.1 | -0.53 | -0.6 | 0.11 |
| Ilp1 (Insulin-like peptide 1) | DRSC10174 | -0.39 | 0.16 | -0.45 | 0.43 |
| Loxl2 (Lysyl oxidase-like 2) | DRSC04469 | 0.29 | -0.55 | 0.27 | -0.33 |
| CG31191 | DRSC13455 | 0 | 1.04 | 0.33 | -0.24 |
| CG31191 | DRSC15214 | -0.94 | -0.05 | -0.3 | -0.4 |
| CG31191 | DRSC15215 | -1.53 | -3.02 | -0.88 | 0.2 |
| CG18605 | DRSC06772 | 1.49 | 1.21 | 0.62 | -0.28 |
| CG4377 | DRSC04467 | -0.48 | -0.22 | 1.13 | 0.23 |
| Or22a (Odorant receptor 22a) | DRSC00764 | -0.69 | -0.08 | -1.21 | 0.08 |
| CG11291 | DRSC04097 | 0.86 | -0.05 | -0.22 | 0.39 |
| Hacd1 (3-hydroxyacyl-CoA dehydratase 1) | DRSC02988 | 0.22 | -0.06 | -0.54 | -0.36 |
| CG1894 | DRSC15396 | 0.44 | 0.01 | -0.29 | 0.13 |
| dpr1 (defective proboscis extension response 1) | DRSC05906 | -0.87 | -0.4 | -0.42 | 0.34 |
| dpr1 (defective proboscis extension response 1) | DRSC06399 | -0.72 | -0.22 | -0.55 | 0.13 |
| CG7080 | DRSC16193 | -0.39 | -0.18 | -0.84 | 0.46 |
| CG30394 | DRSC04074 | 1.53 | 0.67 | 0.85 | -0.45 |
| CG30394 | DRSC04260 | 0.98 | 0.91 | 0.28 | 0.31 |
